Values after ≈ are worked out from the molar mass of the structure shown.
Test system: Escherichia coli (DSM1116, ATCC 9637)
Test: Antibacterial screening, broth dilution MIC
Format: cell-based
Settings: ATCC9637|DSM1116, 20 h, read-out: Mean MIC ± standard error
Procedure, shortened: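 Test compound serially diluted from 64 μg/ml, inoculum 2–8×10^5 CFU/ml, duplicate wells. Incubated 20 h at 37 °C, then absorbance read at 600 nm. MIC derived by curve fitting over three independent experiments. Positive controls: linezolid for S. aureus, ciprofloxacin for the others.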

MIC: 0.3 ± 0.1 µM (≈ 0.0994 µg/mL)
Compound: O=C(O)c1cn(C2CC2)c2cc(N3CCNCC3)c(F)cc2c1=O [ciprofloxacin, reference compound]

Reference: paper PMC9290826 (Chemmedchem, 2021)
